PMC5675621
These are yes or no findings as the source states them, for the method shown. In cells and extracts the contact can be indirect. Some results given as binding are weak or reduced against the parent protein; the word gives no strength.

Biological target: Wilms' tumor gene 1 protein (WT1), endogenous in K562 cells (human (endogenous in K562)) (UniProt P19544)
Test: co-IP; nuclear extracts of K562 cells, endogenous proteins; IP with anti-WT1 in 1 × Low IP buffer, wash with 1 × Low Wash buffer without DTT or NaCl (lower stringency); immunoblot with anti-NAB2; Sepharose only as negative control

B1: NAB2 (NGFI-A Binding Protein 2), endogenous in K562 cells (protein, UniProt Q15742-1 1-525)
chain: MHRAPSPTAEQPPGGGDSARRTLQPRLKPSARAMALPRTLGELQLYRVLQRANLLSYYETFIQQGGDDVQQLCEAGEEEFLEIMALVGMATKPLHVRRLQKALREWATNPGLFSQPVPAVPVSSIPLFKISETAGTRKGSMSNGHGSPGEKAGSARSFSPKSPLELGEKLSPLPGGPGAGDPRIWPGRSTPESDVGAGGEEEAGSPPFSPPAGGGVPEGTGAGGLAAGGTGGGPDRLEPEMVRMVVESVERIFRSFPRGDAGEVTSLLKLNKKLARSVGHIFEMDDNDSQKEEEIRKYSIIYGRFDSKRREGKQLSLHELTINEAAAQFCMRDNTLLLRRVELFSLSRQVARESTYLSSLKGSRLHPEELGGPPLKKLKQEVGEQSHPEIQQPPPGPESYVPPYRPSLEEDSASLSGESLDGHLQAVGSCPRLTPPPADLPLALPAHGLWSRHILQQTLMDEGLRLARLVSHDRVGRLSPCVPAKPPLAEFEEGLLDRCPAPGPHPALVEGRRSSVKVEAEASRQ
For B1, the binding was “binds”.
